The target in this test is MDM2 (UniProt Q00987). Put plainly: co-IP; overexpression of both NBPF1 and MDM2 in HEK293T cells; data not shown; bait not stated.

Chains of the proteins cited; added tags and fusions are not shown.
UniProt Q00987: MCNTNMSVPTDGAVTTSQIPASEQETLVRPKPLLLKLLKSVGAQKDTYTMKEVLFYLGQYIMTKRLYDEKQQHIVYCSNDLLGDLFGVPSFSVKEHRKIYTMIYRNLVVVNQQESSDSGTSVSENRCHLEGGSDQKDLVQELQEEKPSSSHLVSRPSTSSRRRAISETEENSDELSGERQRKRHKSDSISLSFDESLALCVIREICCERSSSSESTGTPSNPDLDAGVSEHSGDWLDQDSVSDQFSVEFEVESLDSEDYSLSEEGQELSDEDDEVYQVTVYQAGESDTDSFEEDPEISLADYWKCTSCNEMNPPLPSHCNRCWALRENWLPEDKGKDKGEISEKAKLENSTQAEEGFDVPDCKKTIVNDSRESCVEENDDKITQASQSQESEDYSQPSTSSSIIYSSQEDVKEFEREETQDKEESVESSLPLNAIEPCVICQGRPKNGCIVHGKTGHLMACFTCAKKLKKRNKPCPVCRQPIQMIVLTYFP

These are yes or no findings as the source states them, for the method shown. In cells and extracts the contact can be indirect. Some binding calls cover weakened binding; strength is not graded here.

B1: NBPF1 (Neuroblastoma Breakpoint Family, member 1) (protein, UniProt Q3BBV0 1-1214)
chain: MVVSAGPWSSEKAETNILEINEKLRPQLAENKQQFRNLKEKCFVTQLAGFLANRQKKYKYEECKDLIKFMLRNERQFKEEKLAEQLKQAEELRQYKVLVHSQERELTQLREKLREGRDASRSLNQHLQALLTPDKPDKSQGQDLQEQLAEGCRLAQQLFQKLSPENDEDEDEDVQVEEAEKVLESSAPREVQKAEESKVPEDSLEECAITCSNSHSPCDSNQPHKNINITFEEDKVNSTLVVDRESSHDECQDAVNILPVPGPTSSATNVSMVVSAGPLSSEKAEMNILEINEKLHPQLAEKKQQFRNLKEKCFVTQLACFLANQQNKYKYEECKDLIKSMLRNERQFKEEKLAEQLKQAEELRQYKVLVHSQERELTQLREKLREGRDASRSLNQHLQALLTPDKPDKSQGQDLQEQLAEGCRLAQQLFQKLSPENDEDEDEDVQVEEAEKVLESSAPREVQKAEESKVPEDSLEECAITCSNSHGPCDSNQPHKNINITFEEDKVNSALVVDRESSHDECQDAVNILPVPGPTSSATNVSMVVSAGPLSSEKAEMNILEINEKLHPQLAEKKQQFRNLKEKCFVTQLACFLANQQNKYKNEECKDLIKSMLRNERQFKEEKLAEQLKQAEELRQYKVLVHSQERELTQLREKLREGRDASCSLNQHLQALLTPDEPDKSQGQDLQEQLAEGCRLAQHLVQKLSPENDNDDDEDVQVEVAEKVQKSSAPREMPKAEEKEVPEDSLEECAITCSNSHGPYDSNQPHRKTKITFEEDKVDSTLIGSSSHVEWEDAVHIIPENESDDEEEEEKGPVSPRNLQESEEEEVPQESWDEGYSTLSIPPEMLASYKSYSGTFHSLEEQQVCMAVDIGGHRWDQVKKEDQEATGPRLSRELLDEKGPEVLQDSLDRCYSTPSGYLELTDSCQPYRSAFYILEQQRVGWALDMDEIEKYQEVEEDQDPSCPRLSRELLDEKEPEVLQDSLDRCYSTPSGYLELPDLGQPYRSAVYSLEEQYLGLALDVDRIKKDQEEEEDQGPPCPRLSRELLEAVEPEVLQDSLDRCYSTPSSCLEQPDSCLPYGSSFYALEEKHVGFSLDVGEIEKKGKGKKRRGRRSTKKRRRRGRKEGEEDQNPPCPRLSGMLMEVEEPEVLQDSLDRCYSTPSMYFELPDSFQHYRSVFYSFEEQHISFALDVDNRFLTLMGTSLHLVFQMGVIFPQ
Regarding B1, the binding entry is “binds weakly”.
